According to the supplement of paper PMC12067093, “Discovery and optimisation of a covalent ligand for TRIM25 and its application to targeted protein ubiquitination” (Chemical Science, 2025):
Some of the results follow.

Sequences of proteins named here, by UniProt entry; tags and fusion partners are left off. A change or cut given only in a name is not applied to a line headed by its entry.
UniProt Q9ULE6: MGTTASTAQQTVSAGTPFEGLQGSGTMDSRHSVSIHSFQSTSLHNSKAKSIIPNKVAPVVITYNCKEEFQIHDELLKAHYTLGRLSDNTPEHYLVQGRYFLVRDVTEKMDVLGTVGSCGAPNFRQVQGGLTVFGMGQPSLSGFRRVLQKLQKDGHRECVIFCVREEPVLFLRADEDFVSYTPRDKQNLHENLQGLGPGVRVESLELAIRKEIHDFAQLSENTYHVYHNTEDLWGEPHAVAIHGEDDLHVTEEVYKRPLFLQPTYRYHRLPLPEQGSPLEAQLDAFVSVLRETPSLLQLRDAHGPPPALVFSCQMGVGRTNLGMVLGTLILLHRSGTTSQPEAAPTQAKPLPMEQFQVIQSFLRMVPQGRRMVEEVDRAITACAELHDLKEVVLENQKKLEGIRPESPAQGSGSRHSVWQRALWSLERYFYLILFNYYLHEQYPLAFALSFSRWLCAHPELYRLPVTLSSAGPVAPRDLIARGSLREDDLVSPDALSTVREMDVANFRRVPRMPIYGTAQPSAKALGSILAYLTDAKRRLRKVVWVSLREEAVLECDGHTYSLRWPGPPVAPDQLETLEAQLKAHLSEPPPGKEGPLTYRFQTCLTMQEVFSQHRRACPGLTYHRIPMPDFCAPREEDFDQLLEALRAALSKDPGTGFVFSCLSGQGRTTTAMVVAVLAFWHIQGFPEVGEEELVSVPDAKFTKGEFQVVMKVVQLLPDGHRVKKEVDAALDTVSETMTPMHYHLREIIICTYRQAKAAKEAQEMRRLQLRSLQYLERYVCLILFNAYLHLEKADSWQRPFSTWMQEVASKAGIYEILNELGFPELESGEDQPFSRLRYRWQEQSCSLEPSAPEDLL
UniProt Q9BXW6, whole entry, looked up: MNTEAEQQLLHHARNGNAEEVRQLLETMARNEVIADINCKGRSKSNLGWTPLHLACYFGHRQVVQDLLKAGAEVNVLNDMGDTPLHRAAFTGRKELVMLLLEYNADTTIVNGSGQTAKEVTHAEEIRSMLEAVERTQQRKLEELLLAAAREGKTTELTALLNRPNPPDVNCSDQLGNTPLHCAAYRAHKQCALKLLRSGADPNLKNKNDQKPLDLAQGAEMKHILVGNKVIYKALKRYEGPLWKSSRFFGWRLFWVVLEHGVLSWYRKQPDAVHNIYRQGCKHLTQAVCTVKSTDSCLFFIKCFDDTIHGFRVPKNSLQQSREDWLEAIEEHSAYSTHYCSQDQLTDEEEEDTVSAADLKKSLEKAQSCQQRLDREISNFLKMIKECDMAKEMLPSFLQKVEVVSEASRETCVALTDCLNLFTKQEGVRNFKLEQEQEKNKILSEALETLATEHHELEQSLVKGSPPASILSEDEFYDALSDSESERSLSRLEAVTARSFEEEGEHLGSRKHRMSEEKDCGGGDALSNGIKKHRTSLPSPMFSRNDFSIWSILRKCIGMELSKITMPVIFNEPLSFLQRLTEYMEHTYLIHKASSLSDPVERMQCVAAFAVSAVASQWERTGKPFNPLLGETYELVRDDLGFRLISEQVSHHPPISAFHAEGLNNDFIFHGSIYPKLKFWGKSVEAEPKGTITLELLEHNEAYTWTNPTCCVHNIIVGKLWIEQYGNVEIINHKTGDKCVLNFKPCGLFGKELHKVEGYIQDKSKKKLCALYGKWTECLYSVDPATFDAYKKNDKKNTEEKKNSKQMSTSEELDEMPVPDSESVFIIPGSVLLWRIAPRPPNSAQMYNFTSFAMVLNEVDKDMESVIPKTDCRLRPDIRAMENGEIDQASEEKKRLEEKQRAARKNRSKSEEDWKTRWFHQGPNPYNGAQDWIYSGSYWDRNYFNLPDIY
UniProt P22059, whole entry, looked up: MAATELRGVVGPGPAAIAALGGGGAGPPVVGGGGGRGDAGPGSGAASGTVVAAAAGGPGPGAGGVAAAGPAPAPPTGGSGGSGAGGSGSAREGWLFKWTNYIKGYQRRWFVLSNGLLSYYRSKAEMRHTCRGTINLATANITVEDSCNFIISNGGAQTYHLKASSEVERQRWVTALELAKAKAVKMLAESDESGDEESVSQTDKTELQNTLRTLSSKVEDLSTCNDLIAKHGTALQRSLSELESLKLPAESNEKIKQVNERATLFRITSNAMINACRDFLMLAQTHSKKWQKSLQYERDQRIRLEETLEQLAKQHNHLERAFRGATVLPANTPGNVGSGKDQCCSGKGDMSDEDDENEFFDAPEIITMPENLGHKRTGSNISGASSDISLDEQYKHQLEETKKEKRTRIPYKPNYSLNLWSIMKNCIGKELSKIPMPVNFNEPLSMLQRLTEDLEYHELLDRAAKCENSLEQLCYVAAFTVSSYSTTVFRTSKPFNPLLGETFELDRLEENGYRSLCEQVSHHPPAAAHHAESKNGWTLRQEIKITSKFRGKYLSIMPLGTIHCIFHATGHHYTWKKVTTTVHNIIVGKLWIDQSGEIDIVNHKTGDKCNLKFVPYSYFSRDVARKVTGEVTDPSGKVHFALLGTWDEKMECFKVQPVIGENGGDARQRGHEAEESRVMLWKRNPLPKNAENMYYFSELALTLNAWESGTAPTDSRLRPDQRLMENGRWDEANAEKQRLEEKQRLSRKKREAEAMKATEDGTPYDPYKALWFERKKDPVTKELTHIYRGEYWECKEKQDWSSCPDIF
UniProt P22234: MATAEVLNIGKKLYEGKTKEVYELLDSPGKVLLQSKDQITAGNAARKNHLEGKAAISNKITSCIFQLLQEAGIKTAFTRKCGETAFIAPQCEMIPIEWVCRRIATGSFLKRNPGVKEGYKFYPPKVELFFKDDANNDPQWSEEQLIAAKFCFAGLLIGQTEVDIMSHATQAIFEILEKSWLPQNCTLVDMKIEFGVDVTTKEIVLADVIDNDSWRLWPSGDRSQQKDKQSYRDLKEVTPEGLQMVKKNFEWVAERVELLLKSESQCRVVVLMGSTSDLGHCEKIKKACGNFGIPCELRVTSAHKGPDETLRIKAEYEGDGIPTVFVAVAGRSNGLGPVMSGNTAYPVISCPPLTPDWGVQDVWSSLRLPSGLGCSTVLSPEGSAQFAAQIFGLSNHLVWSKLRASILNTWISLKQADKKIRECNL
UniProt O96013: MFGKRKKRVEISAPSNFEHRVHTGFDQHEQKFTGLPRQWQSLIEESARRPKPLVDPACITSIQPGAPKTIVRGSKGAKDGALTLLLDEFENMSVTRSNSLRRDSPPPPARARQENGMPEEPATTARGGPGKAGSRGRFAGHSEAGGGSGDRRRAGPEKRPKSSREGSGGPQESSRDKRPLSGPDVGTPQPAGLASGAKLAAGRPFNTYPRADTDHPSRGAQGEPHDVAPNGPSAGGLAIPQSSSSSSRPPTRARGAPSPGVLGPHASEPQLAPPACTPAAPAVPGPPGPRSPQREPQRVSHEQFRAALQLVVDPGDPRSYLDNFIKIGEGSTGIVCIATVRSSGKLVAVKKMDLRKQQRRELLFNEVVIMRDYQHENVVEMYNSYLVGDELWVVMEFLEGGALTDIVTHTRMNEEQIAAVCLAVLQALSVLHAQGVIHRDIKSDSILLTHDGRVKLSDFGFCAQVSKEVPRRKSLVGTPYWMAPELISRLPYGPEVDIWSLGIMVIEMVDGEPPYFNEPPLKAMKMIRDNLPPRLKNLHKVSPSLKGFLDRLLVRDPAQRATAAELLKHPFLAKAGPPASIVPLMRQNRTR
UniProt Q92882: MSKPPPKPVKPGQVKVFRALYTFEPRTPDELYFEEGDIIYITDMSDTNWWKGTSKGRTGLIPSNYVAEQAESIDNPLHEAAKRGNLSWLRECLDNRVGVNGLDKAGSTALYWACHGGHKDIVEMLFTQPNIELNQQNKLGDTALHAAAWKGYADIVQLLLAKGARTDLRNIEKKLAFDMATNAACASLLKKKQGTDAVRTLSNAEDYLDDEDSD
UniProt Q9H074: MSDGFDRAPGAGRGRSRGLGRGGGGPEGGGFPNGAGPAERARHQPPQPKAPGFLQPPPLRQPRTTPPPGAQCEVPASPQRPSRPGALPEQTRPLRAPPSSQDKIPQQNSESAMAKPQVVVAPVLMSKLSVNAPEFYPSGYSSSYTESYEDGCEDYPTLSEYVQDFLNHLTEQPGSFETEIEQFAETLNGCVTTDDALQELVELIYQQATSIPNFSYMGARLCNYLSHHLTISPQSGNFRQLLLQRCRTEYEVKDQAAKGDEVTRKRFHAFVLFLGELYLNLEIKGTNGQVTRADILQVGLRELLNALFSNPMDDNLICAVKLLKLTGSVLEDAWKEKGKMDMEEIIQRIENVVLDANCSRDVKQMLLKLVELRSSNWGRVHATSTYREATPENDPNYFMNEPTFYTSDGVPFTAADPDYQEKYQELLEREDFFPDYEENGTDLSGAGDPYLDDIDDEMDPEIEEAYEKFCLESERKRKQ
UniProt O95453: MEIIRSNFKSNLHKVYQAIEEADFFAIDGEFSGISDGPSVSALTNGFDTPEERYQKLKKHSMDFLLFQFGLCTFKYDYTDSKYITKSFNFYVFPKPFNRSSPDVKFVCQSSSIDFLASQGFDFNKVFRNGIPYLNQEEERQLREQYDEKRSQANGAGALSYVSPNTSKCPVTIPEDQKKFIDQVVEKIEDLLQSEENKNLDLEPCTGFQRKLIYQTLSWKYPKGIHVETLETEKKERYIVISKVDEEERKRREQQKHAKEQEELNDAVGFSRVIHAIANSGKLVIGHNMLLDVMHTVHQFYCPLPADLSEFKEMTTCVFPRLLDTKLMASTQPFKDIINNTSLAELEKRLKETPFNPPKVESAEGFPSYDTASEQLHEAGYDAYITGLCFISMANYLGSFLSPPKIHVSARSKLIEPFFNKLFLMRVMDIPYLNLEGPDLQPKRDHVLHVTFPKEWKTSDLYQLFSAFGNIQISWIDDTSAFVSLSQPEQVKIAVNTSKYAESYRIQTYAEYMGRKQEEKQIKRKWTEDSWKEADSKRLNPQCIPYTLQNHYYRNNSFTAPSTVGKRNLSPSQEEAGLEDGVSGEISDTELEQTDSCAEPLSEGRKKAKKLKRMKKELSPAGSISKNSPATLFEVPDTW
UniProt Q9Y2J8, whole entry, looked up: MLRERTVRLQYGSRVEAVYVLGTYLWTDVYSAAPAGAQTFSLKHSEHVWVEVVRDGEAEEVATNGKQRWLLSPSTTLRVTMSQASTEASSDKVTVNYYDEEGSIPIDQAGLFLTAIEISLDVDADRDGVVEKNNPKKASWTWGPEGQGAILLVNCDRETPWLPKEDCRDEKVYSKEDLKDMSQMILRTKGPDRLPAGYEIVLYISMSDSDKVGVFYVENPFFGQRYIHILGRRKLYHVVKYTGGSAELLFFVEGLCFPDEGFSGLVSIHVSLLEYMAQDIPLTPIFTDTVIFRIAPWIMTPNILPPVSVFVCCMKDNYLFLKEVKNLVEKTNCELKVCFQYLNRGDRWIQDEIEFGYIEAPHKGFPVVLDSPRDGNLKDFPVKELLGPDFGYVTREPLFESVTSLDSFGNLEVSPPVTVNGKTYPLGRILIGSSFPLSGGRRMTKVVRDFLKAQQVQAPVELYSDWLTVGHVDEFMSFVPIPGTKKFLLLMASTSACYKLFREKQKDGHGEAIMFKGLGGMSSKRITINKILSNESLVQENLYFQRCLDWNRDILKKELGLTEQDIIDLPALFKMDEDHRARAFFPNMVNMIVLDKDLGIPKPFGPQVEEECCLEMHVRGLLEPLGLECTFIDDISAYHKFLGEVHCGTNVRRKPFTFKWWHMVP
UniProt Q15102: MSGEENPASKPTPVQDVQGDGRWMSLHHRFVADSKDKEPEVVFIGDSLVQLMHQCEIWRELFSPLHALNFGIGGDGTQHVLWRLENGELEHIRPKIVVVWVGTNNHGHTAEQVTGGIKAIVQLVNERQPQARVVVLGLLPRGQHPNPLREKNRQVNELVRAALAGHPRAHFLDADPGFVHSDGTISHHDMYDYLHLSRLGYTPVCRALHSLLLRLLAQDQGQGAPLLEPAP
UniProt Q9UQ80: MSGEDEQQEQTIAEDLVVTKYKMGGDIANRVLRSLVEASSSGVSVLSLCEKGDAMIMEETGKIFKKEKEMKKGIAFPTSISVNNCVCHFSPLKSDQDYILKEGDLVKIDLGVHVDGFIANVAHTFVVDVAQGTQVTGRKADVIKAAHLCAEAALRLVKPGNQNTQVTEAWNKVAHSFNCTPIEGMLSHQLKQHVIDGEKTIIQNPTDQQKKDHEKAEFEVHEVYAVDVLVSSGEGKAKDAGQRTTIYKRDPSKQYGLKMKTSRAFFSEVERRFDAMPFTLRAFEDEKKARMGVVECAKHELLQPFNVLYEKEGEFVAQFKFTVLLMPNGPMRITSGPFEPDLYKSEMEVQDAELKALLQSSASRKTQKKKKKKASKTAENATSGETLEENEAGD
UniProt Q9NPF4: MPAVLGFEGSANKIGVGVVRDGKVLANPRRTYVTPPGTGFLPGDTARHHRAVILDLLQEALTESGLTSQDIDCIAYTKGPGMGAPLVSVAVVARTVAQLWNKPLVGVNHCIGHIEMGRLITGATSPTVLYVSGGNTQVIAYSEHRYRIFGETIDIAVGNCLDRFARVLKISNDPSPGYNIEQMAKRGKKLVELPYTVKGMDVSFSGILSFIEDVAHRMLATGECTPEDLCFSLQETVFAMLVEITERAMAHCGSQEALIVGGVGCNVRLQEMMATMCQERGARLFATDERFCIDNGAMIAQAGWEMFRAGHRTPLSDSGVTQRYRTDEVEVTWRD

compound: Cc1cc(ccc1-c1ccccc1)C(=O)N1CCCN(CC1)C(=O)CCl [compound 10]; experiment: probe-labelled cysteine peptide fold change vs DMSO (competition) (log2 fold change); higher = less target engagement (more negative = stronger competition); details: 10 µM; THP-1; incubation time: 4 h
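Also: competitive profiling in live THP-1 cells: cysteine peptides tagged with an iodoacetamide desthiobiotin (IA-DTB) probe, intensity after compound treatment relative to DMSO-treated cells.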

Target	probe-labelled cysteine peptide fold change
PALD1_Q9ULE6_631_IPMPDFCAPREEDFDQLLEALR (UniProt Q9ULE6)	0.0385
PACS1_Q6VY07_732_VMQYVNGAATTHQLPVAEAMLTCR (UniProt Q6VY07)	0.122
PAFAH1B1_P43034_281_EHEHVVECISWAPESSYSSISEATGSETKK (UniProt P43034)	0.0319
OPLAH_O14841_382_SGLFVVGPESAGAHPGPACYR (UniProt O14841)	0.0398
OSBPL1A_Q9BXW6_769_LCALYGK (UniProt Q9BXW6)	-0.186
OSBPL8_Q9BZF1_575_GEDYVMTMPYAHCK (UniProt Q9BZF1)	0.0779
PALD1_Q9ULE6_312_DAHGPPPALVFSCQMGVGR (UniProt Q9ULE6)	0.248
OVCA2_Q8WZ82_64_SDFGSCPPEEQPR (UniProt Q8WZ82)	-0.168
PARP14_Q460N5_509_VTQHLCLK (UniProt Q460N5)	0.0914
OSBPL1A_Q9BXW6_297_STDSCLFFIK (UniProt Q9BXW6)	-0.165
PACSIN2_Q9UNF0_465_MEDEDEQGWCK (UniProt Q9UNF0)	0.113
OSBP_P22059_803_QDWSSCPDIF (UniProt P22059)	-0.24
ORC5_O43913_63_TLELPHVFVNCVECFTLR (UniProt O43913)	0.329
PAICS_P22234_295_ACGNFGIPCELR (UniProt P22234)	-0.117
PAK4_O96013_336_IGEGSTGIVCIATVR (UniProt O96013)	0.142
OSTF1_Q92882_185_LAFDMATNAACASLLKK (UniProt Q92882)	0.166
PABPC1_P11940_132_VVCDENGSK (UniProt P11940)	-0.073
PAIP1_Q9H074_358_IENVVLDANCSR (UniProt Q9H074)	0.137
OSTC_Q9NRP0_14_VPFLVLECPNLK (UniProt Q9NRP0)	0.025

Target	probe-labelled cysteine peptide fold change
ORC1_Q13415_506_LHVSAVPESLPCR (UniProt Q13415)	0.0177
OSGEPL1_Q9H4B0_295_GQILSSAADIAATVQHTMACHLVK (UniProt Q9H4B0)	-0.142
P2RX4_Q99571_132_SDASCTAGSAGTHSNGVSTGR (UniProt Q99571)	-0.103
PALD1_Q9ULE6_382_AITACAELHDLK (UniProt Q9ULE6)	-0.02
PAICS_P22234_91+100_CGETAFIAPQCEMIPIEWVCR (UniProt P22234)	0.00291
OSBP_P22059_517_SLCEQVSHHPPAAAHHAESK (UniProt P22059)	-0.000272
PAFAH1B1_P43034_330_MWDVSTGMCLMTLVGHDNWVR (UniProt P43034)	0.18
PARN_O95453_205_NLDLEPCTGFQR (UniProt O95453)	0.118
PADI2_Q9Y2J8_612+613_PFGPQVEEECCLEMHVR (UniProt Q9Y2J8)	-0.381
PAFAH1B1_P43034_252_MVRPNQDGTLIASCSNDQTVR (UniProt P43034)	0.155
PAFAH1B3_Q15102_205_LGYTPVCR (UniProt Q15102)	0.223
ORC3_Q9UBD5_639_LHLECSR (UniProt Q9UBD5)	0.139
ORC4_O43929_152_TSSCPVIFILDEFDLFAHHK (UniProt O43929)	0.343
PA2G4_Q9UQ80_149_AAHLCAEAALR (UniProt Q9UQ80)	0.0776
OTUD4_Q01804_489_DEQAFPALSSSSVNQSASQSSNPCVQR (UniProt Q01804)	-0.0829
OSGEP_Q9NPF4_277_LQEMMATMCQER (UniProt Q9NPF4)	-0.0942
P3H1_Q32P28_600_DDSHPVHVDNCILNAETLVCVK (UniProt Q32P28)	0.119
PARP12_Q9H0J9_85_AHQGSKPGCVGLCAQLHLCR (UniProt Q9H0J9)	-0.373
PARP1_P09874_845_IEREGECQR (UniProt P09874)	0.221

A portion of the results above:
Target	probe-labelled cysteine peptide fold change
PAICS_P22234_91+100_CGETAFIAPQCEMIPIEWVCR (UniProt P22234)	0.00291
OSBP_P22059_517_SLCEQVSHHPPAAAHHAESK (UniProt P22059)	-0.000272
PAFAH1B1_P43034_330_MWDVSTGMCLMTLVGHDNWVR (UniProt P43034)	0.18
PARN_O95453_205_NLDLEPCTGFQR (UniProt O95453)	0.118
PADI2_Q9Y2J8_612+613_PFGPQVEEECCLEMHVR (UniProt Q9Y2J8)	-0.381
PAFAH1B1_P43034_252_MVRPNQDGTLIASCSNDQTVR (UniProt P43034)	0.155
PAFAH1B3_Q15102_205_LGYTPVCR (UniProt Q15102)	0.223
